One assay addresses T1, dS Aβ (1–10).
T1 chain: DAEFRHDSGY
As to the kind of experiment: native MS; IM-MS of oligomers of one Aβ fragment alone; Aβ (1–10) and Aβ (1–16) 600 µM, 10 mM NH4OAc; oligomers of many sizes seen, a printed size is the largest one; both purified. The settings on record: remark: other sources report otherwise.

For another assay, the target named is T2, dD Aβ (1–10).
T2 chain: DAEFRHDSGY
The assay is described as above. The settings on record: remark: other sources report otherwise.

No constants are given. Whether binding was seen depends on the method and setting. Some results given as binding are weak or reduced against the parent protein; the word gives no strength.

Here are results for two molecules from article PMC6834639.

B1: dS Aβ (1–10) (peptide)
peptide: DAEFRHDSGY
modifications: here or on the partner: D-serine at the underlined Ser (S8 by the letters); D-serine at the underlined Ser (S8 by the letters)
For B1, the binding result in the assay with dS Aβ (1–10) is reported as “binds”.

B2: dD Aβ (1–10) (peptide)
peptide: DAEFRHDSGY
modifications: here or on the partner: D-aspartic acid at the underlined Asp residues (D1 and D7 by the letters); D-aspartic acid at the underlined Asp residues (D1 and D7 by the letters)
Regarding B2, in the assay with dD Aβ (1–10), the binding entry is “binds”.
